# Measurements reported in PubChem BioAssay AID720504 (National Center for Advancing Translational Sciences (NCATS), 2013).
# Protein sequences, listed by entry. Tags and fused reporters are not part of them.
# UniProt P53350, whole entry, looked up: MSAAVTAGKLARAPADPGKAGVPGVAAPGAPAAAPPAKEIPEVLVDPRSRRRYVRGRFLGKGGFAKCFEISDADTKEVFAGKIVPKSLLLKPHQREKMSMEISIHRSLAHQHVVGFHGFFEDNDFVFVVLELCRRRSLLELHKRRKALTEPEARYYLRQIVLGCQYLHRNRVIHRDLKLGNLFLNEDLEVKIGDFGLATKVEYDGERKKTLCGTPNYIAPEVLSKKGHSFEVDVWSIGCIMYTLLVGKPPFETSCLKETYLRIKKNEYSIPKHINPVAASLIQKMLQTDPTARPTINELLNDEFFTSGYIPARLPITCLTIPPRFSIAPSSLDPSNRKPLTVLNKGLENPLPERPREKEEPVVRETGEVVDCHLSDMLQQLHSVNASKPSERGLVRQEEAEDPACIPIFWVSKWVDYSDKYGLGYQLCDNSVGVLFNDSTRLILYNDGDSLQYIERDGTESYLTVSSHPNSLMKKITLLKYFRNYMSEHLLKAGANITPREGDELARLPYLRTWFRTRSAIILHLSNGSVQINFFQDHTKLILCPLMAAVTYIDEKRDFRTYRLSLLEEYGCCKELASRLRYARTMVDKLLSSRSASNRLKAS
# Hit rate of the full screen: of about 360,000 compounds, about 10,000 (2.8%) were called active. Inconclusive results, whose numbers are uncertain, are shown with a selection of clear calls. The call rests on the fitted dose curve; in most records, active means well fitted inhibition curve with a large enough effect; inconclusive means small, poorly fitted or top-dose-only effect; inactive means flat fitted curve, though single readings scatter. Potencies of inconclusive entries are doubtful fits and often do not repeat.
# Target: Serine/threonine-protein kinase PLK1 (Homo sapiens) (UniProt P53350)
# Assay: qHTS for Inhibitors of PLK1-PDB (polo-like kinase 1 - polo-box domain): Primary Screen; further: nearly all actives have a fitted effect of over 65% in size; on max response, negative = inhibition: series mostly up to about 57 µM
# Conditions: Plk1 PBD binding of FITC phosphopeptide, fluorescence polarization
# On the % scale 0 is the no-effect control and ±100 the full control effect; potency means the concentration at half of the fitted maximal effect.
SMILES,"max response, negative = inhibition",Potency
CCOc1ccc2nc(COC(=O)c3cccc([N+](=O)[O-])c3)c(C(C)=O)[n+]([O-])c2c1,inactive: -7.02%,
Fc1ccc(C2=Nc3cccc4cccc(c34)N2)cc1,,"inconclusive: 26.7 µM [inhibitor, partial curve]"
COc1ccc(NC(=O)CSc2nnc(NC(=O)c3ccccc3C(=O)O)s2)cc1,,active: 16.8 µM
CN1CCN(NC(=O)CC(C)(C)C)CC1,inactive: -11.5%,
COc1ccc(Br)cc1/C=c1\sc2nc(-c3ccco3)nn2c1=O,,"inconclusive: 18.9 µM [inhibitor, partial curve]"
O=C(c1ccco1)N1CCN(S(=O)(=O)c2ccccc2[N+](=O)[O-])CC1,,active: 29.9 µM
COc1ccccc1N1CCN(CC(=O)c2c(C)[nH]c3cc(C)ccc23)CC1,inactive: -5.18%,
O=C(N/N=C/c1ccccc1)c1n[nH]c2c1CCCC2,inactive: -7.11%,
COc1ccc(C2C(C(=O)Nc3cccnc3)=C(C)Nc3nc(-c4cccs4)nn32)cc1OC (configuration not stated),,"inconclusive: 29.9 µM [inhibitor, single point]"
O=C(O)c1ccc(NC(=S)NC2CCCCC2)cc1,inactive: -3.21%,
O=C(O)C1=CC[C@@H](c2ccc(Cl)cc2)N(S(=O)(=O)c2ccc(Cl)cc2)[C@H]1c1ccc(F)cc1,,"inconclusive: 23.8 µM [inhibitor, single point]"
Oc1c(Br)cc(Br)cc1/C=N/c1nc2c(s1)CCCC2,,"inconclusive: 21.2 µM [inhibitor, partial curve]"
CSc1ccc(CN2CCC(C)(Oc3ccc(F)cc3)C2)cc1 (configuration not stated),inactive: -4.7%,
CN(CC(=O)Nc1ccccc1Cl)C(=O)CSC(=S)N1CCCC1,,"inconclusive: 26.7 µM [inhibitor, partial curve]"
O=c1cc(CO)oc(C(Nc2ccccn2)c2ccccc2Cl)c1O (configuration not stated),,"inconclusive: 33.6 µM [inhibitor, partial curve]"
Cc1ccc(-c2csc(=S)[nH]2)cc1,,"inconclusive: 26.7 µM [inhibitor, partial curve]"
O=C(NC1CCCCC1)C(c1ccccc1)N(C(=O)c1csnn1)C1CCCC1 (configuration not stated),inactive: -1.65%,
O=C(NNC(=S)Nc1ccc(Br)cc1Cl)c1ccncc1,,"inconclusive: 23.8 µM [inhibitor, partial curve]"
O=C(O)c1ccc2c(c1)C(=O)/C(=C\c1ccco1)C2=O,,active: 8.44 µM
COc1ccc(OCC(=O)Nc2ccc(S(=O)(=O)N3CCN(C)CC3)cc2)cc1,inactive: -7.12%,
CCOC(=O)CSc1nc2cc(OC)ccc2cc1C#N,inactive: -6.33%,
COC(=O)c1cnn(-c2cc(Oc3ccccc3)ncn2)c1N,inactive: -2.84%,
COCc1cc(/C=N\NC(=O)Cc2ccc(OC)cc2)ccc1OC,inactive: -7.2%,
CCNC(=O)C1=C(O)c2sccc2N(C)S1(=O)=O,inactive: -8.86%,

SMILES,"max response, negative = inhibition",Potency
O=C(O)CCc1ccc(-c2ccccc2)o1,,"inconclusive: 29.9 µM [inhibitor, single point]"
CC1CCc2[nH]c3ccc(C(=O)NCC4CCCO4)cc3c2C1 (configuration not stated),inactive: 1.48%,
CCc1c(C)nc2ncnn2c1N1CCCC(C(=O)NCCc2ccccc2)C1 (configuration not stated),,"inconclusive: 29.9 µM [inhibitor, single point]"
CCC(C)N1C(=O)S/C(=C/c2ccc3c(c2)n(C)c(=O)n3C)C1=O (configuration not stated),,"inconclusive: 21.2 µM [inhibitor, partial curve]"
COc1ccc(/C(=C/Nc2cccc(Br)c2)C(C)=O)cc1OC,,active: 26.7 µM
CC(C)CCn1c(=O)c2ccccc2n2c(=S)[nH]nc12,inactive: -15.5%,
Cc1ccc(NC(=S)N(CCCN2CCOCC2)Cc2ccco2)cc1,,"inconclusive: 29.9 µM [inhibitor, partial curve]"
Cc1ccc(CC2SC(=O)NC2=O)cc1Cl (configuration not stated),,"inconclusive: 23.8 µM [inhibitor, single point]"
CC(=O)C1=C(C)OC(N)=C(C#N)C1c1cccc([N+](=O)[O-])c1 (configuration not stated),,"inconclusive: 26.7 µM [inhibitor, single point]"
Cc1nn(-c2cc(C(F)(F)F)ccc2Cl)c2nc(C(Cl)(Cl)Cl)[nH]c(=O)c12,,"inconclusive: 26.7 µM [inhibitor, single point]"
C#CCSc1nnc(-c2ccc(OC)cc2)o1,,"inconclusive: 23.8 µM [inhibitor, partial curve]"
COc1ccc2c(c1)OC[C@H]1[C@H]2N2C(=O)CN(CCc3c[nH]c4ccccc34)C(=O)[C@@]2(C)[C@H]1c1ccccc1,,"inconclusive: 37.7 µM [inhibitor, single point]"
Cc1cc(C)c(NC(=S)N(CCN(C)C)C(C)c2cccnc2)c(C)c1 (configuration not stated),,"inconclusive: 26.7 µM [inhibitor, partial curve]"
Cc1cccc(-n2ncc3c(NCc4cccnc4)ncnc32)c1,inactive: -8.55%,
Cc1sc(NC(=O)c2ccco2)c(C(=O)c2ccc(Cl)cc2)c1C,,"inconclusive: 26.7 µM [inhibitor, partial curve]"
Cc1ccc(C(=O)N/N=C2\CC3CC=CC23)c(C)c1 (configuration not stated),inactive: -4.75%,
N#C/C(=C(/O)Cc1cccc2ccccc12)c1nc2ccccc2s1,,"inconclusive: 26.7 µM [inhibitor, single point]"
CCCCCC(=O)NC(=S)NC1C2CC3CC(C2)CC1C3 (configuration not stated),inconclusive: -30.7% [inhibitor],
Cc1ccc(-n2nc(-c3cccs3)cc2C(=O)NCC2CCCO2)c(C)c1 (configuration not stated),inconclusive: -35.4% [inhibitor],
Cc1sc(N)c(C(=O)c2ccccc2)c1C,,active: 3.77 µM
COc1ccc(-c2csc(NS(=O)(=O)c3ccc([N+](=O)[O-])cc3)n2)cc1,,"inconclusive: 26.7 µM [inhibitor, partial curve]"
CC1=NN(Cc2ccccc2)C(=O)C1C(c1ccncc1)C(C#N)C#N (configuration not stated),,"inconclusive: 21.2 µM [inhibitor, partial curve]"
CN(C(=O)C1CCCCN1S(=O)(=O)c1ccccc1)c1ccccc1 (configuration not stated),,"inconclusive: 33.6 µM [inhibitor, partial curve]"
C=CCOc1cccc(C2/C(=C(\O)c3ccc4c(c3)OCCO4)C(=O)C(=O)N2CCN2CCOCC2)c1 (configuration not stated),inactive: -7.95%,

# Given with tabs: 14 of the compounds above.
SMILES	max response, negative = inhibition	Potency
Fc1ccc(C2=Nc3cccc4cccc(c34)N2)cc1		inconclusive: 26.7 µM [inhibitor, partial curve]
COc1ccc(NC(=O)CSc2nnc(NC(=O)c3ccccc3C(=O)O)s2)cc1		active: 16.8 µM
O=C(c1ccco1)N1CCN(S(=O)(=O)c2ccccc2[N+](=O)[O-])CC1		active: 29.9 µM
O=C(N/N=C/c1ccccc1)c1n[nH]c2c1CCCC2	inactive: -7.11%	
O=C(O)c1ccc(NC(=S)NC2CCCCC2)cc1	inactive: -3.21%	
COCc1cc(/C=N\NC(=O)Cc2ccc(OC)cc2)ccc1OC	inactive: -7.2%	
CCNC(=O)C1=C(O)c2sccc2N(C)S1(=O)=O	inactive: -8.86%	
CCc1c(C)nc2ncnn2c1N1CCCC(C(=O)NCCc2ccccc2)C1 (configuration not stated)		inconclusive: 29.9 µM [inhibitor, single point]
COc1ccc(/C(=C/Nc2cccc(Br)c2)C(C)=O)cc1OC		active: 26.7 µM
Cc1ccc(CC2SC(=O)NC2=O)cc1Cl (configuration not stated)		inconclusive: 23.8 µM [inhibitor, single point]
C#CCSc1nnc(-c2ccc(OC)cc2)o1		inconclusive: 23.8 µM [inhibitor, partial curve]
Cc1cc(C)c(NC(=S)N(CCN(C)C)C(C)c2cccnc2)c(C)c1 (configuration not stated)		inconclusive: 26.7 µM [inhibitor, partial curve]
Cc1sc(NC(=O)c2ccco2)c(C(=O)c2ccc(Cl)cc2)c1C		inconclusive: 26.7 µM [inhibitor, partial curve]
COc1ccc(-c2csc(NS(=O)(=O)c3ccc([N+](=O)[O-])cc3)n2)cc1		inconclusive: 26.7 µM [inhibitor, partial curve]

# (further entries)

SMILES,"max response, negative = inhibition",Potency
Cc1ccc(S(=O)(=O)N2CCCCC2)cc1NC(=O)Cn1ncc(Cl)c(Cl)c1=O,inactive: -18.6%,
CC1CCc2c(sc(N)c2C(=O)OC(C)C)C1 (configuration not stated),,"inconclusive: 29.9 µM [inhibitor, single point]"
O=C(COC(=O)c1ccc([N+](=O)[O-])s1)Nc1ncc(C(F)(F)F)cc1Cl,,"inconclusive: 26.7 µM [inhibitor, partial curve]"
COc1c(C)cc(C(=O)C2CCCN(C(=O)CCc3scnc3C)C2)cc1C (configuration not stated),inactive: -1.81%,
O=[N+]([O-])c1c(Nc2cccc(O)c2)cc(Cl)c2nonc12,,active: 4.23 µM
COc1ccc(OC)c(C2c3c(oc4ccccc4c3=O)C(=O)N2CCCN(C)C)c1 (configuration not stated),inactive: -1.72%,
O=C1C(=O)N(CCN2CCOCC2)C(c2ccncc2)/C1=C(/O)c1ccc2c(c1)OCO2 (configuration not stated),,"inconclusive: 37.7 µM [inhibitor, partial curve]"
Cc1ccc2nc(-c3ccccc3)cc(C(=O)N3CCc4ccccc4C3)c2c1,,"inconclusive: 26.7 µM [inhibitor, partial curve]"
Cc1cccc(N2CCN(Cc3nc(C4CC4)no3)CC2)n1,,"inconclusive: 26.7 µM [inhibitor, partial curve]"
CCCCC1=CC2=CC(=O)C(C)(OC(=O)C3CCCC3)C(=O)C2=CO1 (configuration not stated),,"inconclusive: 26.7 µM [inhibitor, partial curve]"
CCC(CC)NC(=O)c1n[nH]c(=O)c2ccccc12,,"inconclusive: 15 µM [inhibitor, partial curve]"
CC(=O)N(c1ccc2oc(=O)sc2c1)S(=O)(=O)c1cccs1,,"inconclusive: 23.8 µM [inhibitor, partial curve]"
COc1ccc(NC(=O)C2CCCCN2S(=O)(=O)c2ccc(F)cc2)cc1 (configuration not stated),inconclusive: -34% [inhibitor],
O=C(O)c1ccc(N/N=C/c2ccc(C(F)(F)F)cc2)cc1,,"inconclusive: 26.7 µM [inhibitor, single point]"
Cc1cccc(CSc2nc3nc(C)cc(C)n3n2)c1,,"inconclusive: 21.2 µM [inhibitor, partial curve]"
Cc1cccc(N2CCN(c3ccc(NC(=O)/C=C\C(=O)O)cc3)CC2)c1,,"inconclusive: 29.9 µM [inhibitor, single point]"
Cc1ccc([C@H]2C(C(=O)O)=CC[C@@H](c3ccc(Cl)cc3)N2S(=O)(=O)c2ccccc2C)cc1,,"inconclusive: 29.9 µM [inhibitor, single point]"
C/C(=N/NC(=O)c1cnccn1)c1ccncc1,inactive: -16.1%,
CCOc1ccc(C(=O)CCC(=O)Nc2cccc(S(=O)(=O)N3CCCCC3)c2)cc1,inactive: 8.01%,
CC1CCCC(C)N1CCCNC(=O)c1nn(C)c2c1CSc1ccccc1-2 (configuration not stated),,"inconclusive: 0.752 µM [inhibitor, single point]"
CCCCn1c(=O)c2ccccc2n2c(=S)[nH]nc12,,active: 26.7 µM
Cc1cccc(C)c1NC(=S)/N=C/N(C)C,,"inconclusive: 37.7 µM [inhibitor, single point]"
O=[N+]([O-])c1ccc(Nc2ccc(F)cc2)cc1,inactive: -4.91%,
COC(=O)c1cc(C)nc(Sc2ccccc2N)n1,,active: 1.68 µM
